The values that follow are results of earlier work, collected in patent US20220257490A1, “METHOD FOR DYEING KERATINOUS MATERIAL, COMPRISING THE USE OF AN ORGANOSILICON COMPOUND, A COLORED EFFECT PIGMENT AND A FILM-FORMING POLYMER IV” (Henkel AG & Co. KGaA, priority 2019, published 2022).

For the data set the following is noted: 25° C.

The structures appear in SMILES notation.

For `CCN(Cc1cccc(S(=O)(=O)[O-])c1)c1ccc(C(=C2C=CC(=[N+](CC)Cc3cccc(S(=O)(=O)[O-])c3)C=C2)c2ccccc2S(=O)(=O)[O-])cc1.[Na+].[Na+]` [Acid Blue 9], the solubility in water result is recorded as “more than 20 % by weight”.
